The values below come from patent US12565659B2, “Recombinant lac polynucleotides and uses thereof to increase production of C-lignin in plants” (UNIVERSITY OF NORTH TEXAS, priority 2020, dated 2026).

In data set [1] the test system is Arabidopsis comt mutant inflorescence stems (expressing ChLAC8 or GUS). The data set is described as follows: Feeding Arabidopsis stems with 13C6-caffeyl alcohol, lignin analysis by thioacidolysis. In kind it is in vivo, Arabidopsis thaliana.
Data set [2] relates to M. truncatula comt mutant hairy root cultures (expressing ChLAC8 or GUS). Briefly: Feeding Medicago hairy roots with 13C6-caffeyl and coniferyl alcohols, lignin analysis by thioacidolysis. In kind it is cell-based, Medicago truncatula. Conditions: 100 μM, 2 days.
[3] abbreviates: ChLAC8-expressing comt lines, cut stems, 100 μM, 2 days.

As for ^13C6-caffeyl alcohol, in data set [1] (setting [3]), the “C-units as share of total lignin thioacidolysis yield” value is 5-9%. Further, the “incorporation of labeled C-units (label incorporation into C-lignin)” value is reported as 34-42% in data set [1] (setting [3]) and “over 40%” in data set [1] (ChLAC8-expressing comt lines, cut stems, 100 μM, 2 days, listed as 13C-caffeyl alcohol). For the same substance, the C-units after feeding entry in data set [1] (GUS control lines (comt mutant), 100 μM, 2 days) was “no C-units were detected”. The “incorporation of 13C into C-lignin” value in data set [1] (comt mutant without ChLAC8) is “no incorporation”. The “% of C units after feeding” value in data set [2] (both ChLAC8-expressing and GUS control lines) is “increased”.
With “^13C6-coniferyl alcohol [^13C-coniferyl alcohol]”, the “proportion of G units or percentage of labeled G units after feeding” value in data set [2] (ChLAC8-expressing roots) was “did not increase”.
